Earlier results in patent US11096912B2, “Valaciclovir and celecoxib combination for functional somatic syndromes” (INNOVATIVE MED CONCEPTS, LLC, priority 2012, dated 2021).
At least one structure is not confirmed: it was looked up by name or label, or the drawing left a doubt.

System: herpes viral reactivation in the nervous system of mice
Conditions: J. Ocul. Pharmacol. Ther. 21, 114-120 (2005)

In the case of `Cc1ccc(-c2cc(C(F)(F)F)nn2-c2ccc(S(N)(=O)=O)cc2)cc1` [celecoxib], the “hyperthermic stress-induced herpes viral reactivation” value is given as “can suppress”.
